Test results taken from US10960037B2, “Method of treating neurological conditions with extract of Nerium species or Thevetia species” (PHOENIX BIOTECHNOLOGY, INC., priority 2010, dated 2021).
At least one compound was matched to its structure with a doubt left.

System: healthy cortical pyramidal neurons in brain slices subjected to OGD
Assay: Brain slice-based oxygen-glucose deprivation (OGD) "stroke" neuroprotection assay
Assay type: cell-based, Sprague-Dawley rat
Details: result in words
Procedure: Example 8 provides a detailed description of an in vitro assay used to evaluate the efficacy of the extract, or fraction thereof, or composition thereof, for the treatment of stroke-mediated ischemic neuronal injury. The assay is a brain slice-based assay for oxygen and glucose deprivation (OGD) used to induce 50% loss of healthy cortical neurons by 24 hours. The parent unfractionated SCF extract of Nerium species, e.g. Nerium oleander, is used as a positive control. The parent extract is then fractionated according to Example 13 to provide a fraction of extract of Nerium species. The fractions are analyzed according to Examples 6, 14 and 17.
Neocortical brain slices were prepared from PND 7 Sprague-Dawley rat pups. The cerebral cortex was dissected, cut into 400-μ-thick slices and transferred into a container containing cold artificial cerebrospinal fluid with 1 μM MK-801 before plating; MK-801 was not included in any subsequent procedures. […]
For all brain slice assays, numbers of healthy pyramidal neurons in the cortical regions of each brain slice were imaged on a Leica MZIIIFL fluorescence stereomicroscope. Cortical pyramidal neurons were readily identified by their characteristic positions and orientations in the cortical plate, and by their prominent extension of a single, apical dendrite radially towards the pial surface. […]

SMILES | neuroprotection in brain slice OGD assay
C=C(C)[C@@H]1CC[C@]2(C(=O)O)CC[C@]3(C)[C@H](CC[C@@H]4[C@@]5(C)CC[C@H](O)C(C)(C)[C@@H]5CC[C@]43C)[C@@H]12 [Betulinic acid, betulinic acid] | little to no activity
C[C@H]1[C@H](C)CC[C@]2(CO)CC[C@]3(C)C(=CC[C@@H]4[C@@]5(C)CC[C@H](O)C(C)(C)[C@@H]5CC[C@]43C)[C@H]12 [uvaol, 3β,28-dihydroxyurs-12-ene] | little to no activity
